From the supplement of paper PMC10470496
Counter-ions that a name gives are not always drawn. Some of the results follow. Single values are uncertain, as repeats are few or missing.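 The strains were three CDC resistance-bank clinical C. auris isolates from clades III, IV and I, cultured in RPMI-1640 at 35°C. Growth was background-corrected OD600 versus vehicle-only wells on the same plate. A hit needed >50% inhibition in two or more strains plus a plate-corrected B-score exceeding 0.1.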

Assays:
Test in all cases: growth relative to vehicle control (OD600 ratio) (fraction); higher = less inhibition
Settings in all cases: 24 h
C. auris AR-384 = test system: C. auris AR-384
C. auris AR-386 = test system: C. auris AR-386
C. auris AR-387 = test system: C. auris AR-387

Structure (SMILES) | growth (C. auris AR-384; 1 µM) | growth (C. auris AR-384; 10 µM) | growth (C. auris AR-386; 1 µM) | growth (C. auris AR-386; 10 µM) | growth (C. auris AR-387; 1 µM) | growth (C. auris AR-387; 10 µM)
CCN(CC)CCOC(=O)c1ccc(N)cc1 [Procaine] | 0.84 | 0.97 | 1.04 | 0.76 | 1.17 | 0.89
Cc1ccc(-c2ncc(Cl)cc2-c2ccc(S(C)(=O)=O)cc2)cn1 [Etoricoxib] | 0.78 | 0.81 | 0.83 | 0.98 | 0.89 | 0.92
C#C[C@]1(O)CC[C@H]2[C@@H]3CCc4cc(OC)ccc4[C@H]3CC[C@@]21C [Mestranol] | 0.89 | 0.99 | 0.98 | 0.77 | 0.64 | 0.61
Cc1cccc(C)c1OCC(C)N (stereo unspecified) [Mexiletine HCl] | 1.08 | 0.95 | 0.72 | 1.12 | 0.98 | 1.06
CC(C)(Oc1ccc(CCNC(=O)c2ccc(Cl)cc2)cc1)C(=O)O [Bezafibrate] | 0.91 | 0.84 | 0.92 | 0.67 | 0.72 | 0.7
Cc1c(-c2ccnn2C)cc(C(=O)NCc2ccc(S(C)(=O)=O)cn2)c(=O)n1-c1cccc(C(F)(F)F)c1 [Alvelestat (AZD9668)] | 1.33 | 1.69 | 1.04 | 1.33 | 1.14 | 1.56
Cn1nnc(-c2ccc(-c3ccc(N4C[C@H](COP(=O)(O)O)OC4=O)cc3F)cn2)n1 [Tedizolid Phosphate] | 0.77 | 0.75 | 0.84 | 0.81 | 1.07 | 0.93
Clc1ccc(COC(Cn2ccnc2)c2ccc(Cl)cc2Cl)cc1 (stereo unspecified) [Econazole nitrate] | 0.49 | 0.33 | 0.86 | 0.63 | 0.14 | 0.17
COCC[n+]1c2c(n(Cc3cnccn3)c1C)C(=O)c1ccccc1C2=O [YM155 (Sepantronium Bromide)] | 1.32 | 0.9 | 0.71 | 0.83 | 1.12 | 0.82
CCOC(=O)C1=C(C)NC(C)=C(C(=O)OCC)C1c1ccccc1/C=C/C(=O)OC(C)(C)C [Lacidipine] | 1.04 | 0.75 | 1.05 | 1.14 | 0.69 | 0.86
C/C(O)=C(\C#N)C(=O)Nc1ccc(C(F)(F)F)cc1 [Teriflunomide] | 0.96 | 0.9 | 0.73 | 1.25 | 0.92 | 1.06
c1ccc(CC2=NCCN2)cc1 [Tolazoline HCl] | 1.15 | 0.99 | 0.95 | 0.93 | 0.94 | 1.04
CNCc1cc(-c2ccccc2F)n(S(=O)(=O)c2cccnc2)c1 [Vonoprazan Fumarate (TAK-438)] | 0.84 | 0.86 | 0.94 | 1 | 0.92 | 1.14
CCN(CC)C(=O)C1(c2ccccc2)CC1CN (stereo unspecified) [Milnacipran HCl] | 0.86 | 0.77 | 0.86 | 0.99 | 0.78 | 0.8
O=C1NC(=O)C(c2ccccc2)(c2ccccc2)N1 [Phenytoin] | 1.52 | 1.52 | 1.2 | 1.29 | 1.16 | 1.04
CO[C@@H]1[C@H](OC(=O)/C=C/C=C/C=C/C=C/C(=O)O)CC[C@]2(CO2)[C@H]1[C@@]1(C)O[C@@H]1CC=C(C)C [Fumagillin] | 0.83 | 0.55 | 0.65 | 0.65 | 0.85 | 0.77
C[C@H]1O[C@H](O[C@H]2[C@H](O)[C@@H](O)[C@@H](O[C@H]3[C@H](O)[C@@H](O)C(O)O[C@@H]3CO)O[C@@H]2CO)[C@H](O)[C@@H](O)[C@@H]1N[C@H]1C=C(CO)[C@@H](O)[C@H](O)[C@H]1O (stereo partly specified) [Acarbose] | 0.97 | 0.83 | 1.16 | 0.87 | 0.93 | 0.87
CCCCCCCC(=O)N[C@H](CN1CCCC1)[C@H](O)c1ccc2c(c1)OCCO2 [Eliglustat] | 0.97 | 0.97 | 0.93 | 0.66 | 0.94 | 0.76
CC1Cc2ccccc2N1NC(=O)c1ccc(Cl)c(S(N)(=O)=O)c1 (stereo unspecified) [Indapamide] | 1 | 1.11 | 1.34 | 1.31 | 1.17 | 1.07
C=CC(=O)Nc1cc(Nc2nccc(-c3cn(C)c4ccccc34)n2)c(OC)cc1N(C)CCN(C)C [Osimertinib (AZD9291)] | 1.03 | 1.03 | 1.04 | 0.88 | 0.88 | 1.07
Nc1c(CC(=O)O)cccc1C(=O)c1ccccc1 [Amfenac Sodium Monohydrate] | 0.78 | 0.7 | 0.51 | 0.65 | 0.63 | 0.92
Clc1ccccc1C(c1ccccc1)(c1ccccc1)n1ccnc1 [Clotrimazole] | 0.47 | 0.7 | 1.12 | 0.59 | 0.06 | 0.05
NS(=O)(=O)c1cc2c(cc1Cl)N=C(CSCc1ccccc1)NS2(=O)=O [Benzthiazide] | 0.97 | 0.9 | 0.87 | 1 | 0.91 | 0.79

Rewritten tab-delimited: part of the list above.
Structure (SMILES)	growth (C. auris AR-384; 1 µM)	growth (C. auris AR-384; 10 µM)	growth (C. auris AR-386; 1 µM)	growth (C. auris AR-386; 10 µM)	growth (C. auris AR-387; 1 µM)	growth (C. auris AR-387; 10 µM)
C/C(O)=C(\C#N)C(=O)Nc1ccc(C(F)(F)F)cc1 [Teriflunomide]	0.96	0.9	0.73	1.25	0.92	1.06
c1ccc(CC2=NCCN2)cc1 [Tolazoline HCl]	1.15	0.99	0.95	0.93	0.94	1.04

The list goes on.

Structure (SMILES) | growth (C. auris AR-384; 1 µM) | growth (C. auris AR-384; 10 µM) | growth (C. auris AR-386; 1 µM) | growth (C. auris AR-386; 10 µM) | growth (C. auris AR-387; 1 µM) | growth (C. auris AR-387; 10 µM)
CC[C@H]1OC(=O)[C@H](C)[C@@H](O[C@H]2C[C@@](C)(OC)[C@@H](O)[C@H](C)O2)[C@H](C)[C@@H](O[C@@H]2O[C@H](C)C[C@H](N(C)C)[C@H]2O)[C@](C)(OC)C[C@@H](C)C(=O)[C@H](C)[C@@H](O)[C@]1(C)O [Clarithromycin] | 0.87 | 1 | 0.97 | 0.95 | 0.97 | 0.98
O=C1O[C@H](CO)[C@@H](O)[C@H](O)[C@H]1O [Gluconolactone] | 0.92 | 0.95 | 0.88 | 0.79 | 0.71 | 0.8
COC(=O)C1=C(C)NC(C)=C(C(=O)OC(C)(C)CN(C)CCC(c2ccccc2)c2ccccc2)C1c1cccc([N+](=O)[O-])c1 (stereo unspecified) [Lercanidipine hydrochloride] | 0.98 | 0.83 | 0.83 | 0.52 | 1 | 0.63
c1ccc2c(CC3=NCCN3)cccc2c1 [Naphazoline HCl] | 0.75 | 0.79 | 0.81 | 0.7 | 0.75 | 1.09
CC(=O)Oc1cc2c(s1)CCN(C(C(=O)C1CC1)c1ccccc1F)C2 (stereo unspecified) [Prasugrel Hydrochloride] | 0.82 | 0.82 | 0.8 | 0.69 | 1.05 | 0.91
Cc1cccc(C)c1OCC(=O)N[C@@H](Cc1ccccc1)[C@@H](O)C[C@H](Cc1ccccc1)NC(=O)[C@H](C(C)C)N1CCCNC1=O [Lopinavir] | 0.96 | 1.35 | 1.42 | 0.78 | 1.06 | 1.16
CCOc1nc2cccc(C(=O)OC(C)OC(=O)OC3CCCCC3)c2n1Cc1ccc(-c2ccccc2-c2nn[nH]n2)cc1 (stereo unspecified) [Candesartan Cilexetil] | 1.14 | 1.4 | 0.92 | 1.25 | 1.39 | 1.45
CCN(CC)C(=O)c1cccc(C)c1 | 0.93 | 0.67 | 0.86 | 0.91 | 1.07 | 0.94
CC(=O)NS(=O)(=O)c1ccc(N)cc1 [Sulfacetamide Sodium] | 1.39 | 1.76 | 1.18 | 1.32 | 1.25 | 1.27
CC1(C)[C@H](C(=O)O)N2C(=O)C[C@H]2S1(=O)=O [Sulbactam sodium] | 0.84 | 1.02 | 1 | 0.92 | 1.12 | 1.08
COC(=O)c1ccc2c(c1)NC(=O)/C2=C(\Nc1ccc(N(C)C(=O)CN2CCN(C)CC2)cc1)c1ccccc1 [Nintedanib (BIBF 1120)] | 1.22 | 0.76 | 0.56 | 0.87 | 0.95 | 0.96
CCC[S+]([O-])c1ccc2[nH]c(NC(=O)OC)nc2c1 (stereo unspecified) [Albendazole Oxide] | 0.76 | 0.92 | 1.03 | 0.58 | 0.67 | 0.79
CC1=C(/C=C/C(C)=C/C=C/C(C)=C/C(=O)O)C(C)(C)CCC1 [Tretinoin] | 0.83 | 0.52 | 1.07 | 1.06 | 0.79 | 1.05
CCOC(=O)N1c2ccc(C(F)(F)F)cc2[C@@H](N(Cc2cc(C(F)(F)F)cc(C(F)(F)F)c2)C(=O)OC)C[C@H]1CC [Torcetrapib] | 0.66 | 0.88 | 0.77 | 0.67 | 0.62 | 0.63
CN(C)CCOC(c1ccccc1)c1ccccc1 [Diphenhydramine HCl] | 0.95 | 1.33 | 0.62 | 1.07 | 0.82 | 0.82
NC[C@@H]1O[C@H](O[C@H]2[C@@H](O)[C@H](O[C@@H]3[C@@H](O)[C@H](N)C[C@H](N)[C@H]3O[C@H]3O[C@H](CO)[C@@H](O)[C@H](O)[C@H]3N)O[C@@H]2CO)[C@H](N)[C@@H](O)[C@@H]1O [Paromomycin Sulfate] | 0.51 | 1.15 | 0.93 | 0.88 | 0.88 | 0.9
Cn1cc(C(=O)[C@@H]2CCc3[nH]cnc3C2)c2ccccc21 [Ramosetron Hydrochloride] | 0.97 | 0.6 | 0.91 | 0.68 | 0.77 | 0.59
CC(C)C(=O)OCC(=O)[C@@]12O[C@H](C3CCCCC3)O[C@@H]1C[C@H]1[C@@H]3CCC4=CC(=O)C=C[C@]4(C)[C@H]3[C@@H](O)C[C@@]12C [Ciclesonide] | 0.77 | 0.88 | 0.7 | 0.74 | 0.69 | 0.68
Oc1ccc(C2CNCCc3c2cc(O)c(O)c3Cl)cc1 (stereo unspecified) [Fenoldopam mesylate] | 1.05 | 1.51 | 1.04 | 1.3 | 1.28 | 1.37
O=C(c1ccccc1)c1ccc2n1CCC2C(=O)O (stereo unspecified) [Ketorolac] | 0.67 | 0.67 | 0.72 | 0.74 | 0.91 | 0.98
Cc1c(C(N)=O)cc([N+](=O)[O-])cc1[N+](=O)[O-] [Dinitolmide] | 0.94 | 0.97 | 0.79 | 0.9 | 0.7 | 1.13
C=C[C@H]1CN2CC[C@H]1C[C@@H]2[C@@H](O)c1ccnc2ccc(OC)cc12 [Quinidine sulfate] | 0.82 | 0.81 | 0.67 | 0.97 | 0.94 | 1.11
NC(=O)[C@@H]1CCCN1C(=O)[C@H](Cc1c[nH]cn1)NC(=O)[C@@H]1CCC(=O)N1 [Protirelin] | 0.8 | 0.69 | 0.79 | 0.71 | 0.73 | 0.63
